Data published in US9150829B2, “Culture of pluripotent and multipotent cells on microcarriers” (AGENCY FOR SCIENCE, TECHNOLOY AND RESEARCH, priority 2009, dated 2015).
Some entries share one result that the patent states for a list of compounds.

Tested on: hESC (HES-2)
Test: Pluripotent marker expression in HES-2 on matrix free microcarriers with ROCK inhibitors
Type: cell-based, human
Conditions: 10 μM, daily continuous addition, after 9 weeks, DE53
Method: Briefly, expression levels of extracellular antigens TRA-1-60 and intracellular transcription factor, Oct-4 in hESC populations are assessed by immunofluorescence using flow cytometry. Cells are harvested as single cell suspensions using trypsin or trypLE express, filtered through a 40 μm sieve (BD) fixed, permeabilised (Caltag Laboratories) and incubated with primary antibodies to TRA-1-60 (1:50 dilution, Chemicon, MAB4360/4381) and to Oct-4 (1:20 dilution, Santa Cruz).
Cells are then washed with 1% BSA/PBS, and incubated in the dark with a 1:500 dilution of goat α-mouse antibody FITC-conjugated (DAKO). After incubation, the cells are again washed and resuspended in 1% BSA/PBS for analysis on a FACScan (Becton Dickinson FACS Calibur). All incubations are performed at room temperature for 15 min.
A range of ROCK inhibitors (at 10 μM) were tested for their ability to allow hESC (HES-2) cell culture on matrix free cellulose DE53 microcarriers. These included fasudil, hydroxyfasudil and […] and were compared to a control (DE53 microcarriers coated in Matrigel).

In the case of `Cl.O=S(=O)(c1cccc2c(O)nccc12)N1CCCNCC1` [HA-1100], the “expression of pluripotent marker Oct4” value is reported as 30-40%.
